Data source: PubChem BioAssay AID1671195 (Yale University, 2021)
This is a random part of about 22,000 deposited reagents. About 1,510 of all reagents (6.9%) were called active. 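Active includes knockdowns raising or lowering LDL uptake; positive z-scores mean more uptake, negative mean less.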 A number with no mark means an inactive call.

Assay: 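Regulators of LDL receptor activity judged by labelled LDL uptake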 (primary screen)
Cell system: human Huh7 hepatoma cells
Reagent: siRNA pool against human genes, 18 nM
Duration: about 2 to 2.5 days of knockdown, then 8 h LDL uptake
Challenge: DiI-labelled LDL at 30 µg/ml for 8 h, in lipoprotein-deficient serum medium
Detection: 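Fluorescent LDL signal imaged in cells, scaled to the plate median, robust z-score for each replicate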
Reading the numbers: robust z-score: higher = more LDL uptake after knockdown
Hit rule: 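a gene counts as active if at least two replicate z-scores exceed ±2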

HCCAT5 (GeneID 283902) showed robust z-score, replicate 1 = -0.457; robust z-score, replicate 2 = -0.446; robust z-score, replicate 3 = -0.361.
For WLS (GeneID 79971) the deposit lists robust z-score, replicate 1 = 0.723; robust z-score, replicate 2 = 0.0653; robust z-score, replicate 3 = 0.0413.
Silencing of LANCL3 (GeneID 347404) resulted in: robust z-score, replicate 1 = 0.101; robust z-score, replicate 2 = -0.282; robust z-score, replicate 3 = -0.714.
Silencing of BOD1 (GeneID 91272) gave: robust z-score, replicate 1 = -0.839; robust z-score, replicate 2 = -0.783; robust z-score, replicate 3 = -0.354.
Against COX8C (GeneID 341947), the entry reads robust z-score, replicate 1 = 0.111; robust z-score, replicate 2 = 0.425; robust z-score, replicate 3 = 0.283.
Depletion of SH3TC2 (GeneID 79628) resulted in: robust z-score, replicate 1 = 0.221; robust z-score, replicate 2 = 0.645; robust z-score, replicate 3 = -0.363.
HHAT (GeneID 55733) scored robust z-score, replicate 1 = -0.0365; robust z-score, replicate 2 = -0.114; robust z-score, replicate 3 = 0.182.
Knock-down of ENPP6 (GeneID 133121) came out at: robust z-score, replicate 1 = 0.854; robust z-score, replicate 2 = 1.11; robust z-score, replicate 3 = 2.2.
DCAF17 (GeneID 80067) scored robust z-score, replicate 1 = 0.716; robust z-score, replicate 2 = 1.37; robust z-score, replicate 3 = 1.95.
With knock-down of TMSB15B (GeneID 286527), the screen gave robust z-score, replicate 1 = 0.703; robust z-score, replicate 2 = 0.974; robust z-score, replicate 3 = 1.1.
Against GUCD1 (GeneID 83606) the deposit lists robust z-score, replicate 1 = -1.32; robust z-score, replicate 2 = -0.396; robust z-score, replicate 3 = -0.602.
Silencing of OSTF1 (GeneID 26578) resulted in: robust z-score, replicate 1 = 0.65; robust z-score, replicate 2 = 1.3; robust z-score, replicate 3 = 0.443.

Not a retest: 3 of the entries above.
TMSB15B (GeneID 286527) — robust z-score, replicate 1 = 0.703; robust z-score, replicate 2 = 0.974; robust z-score, replicate 3 = 1.1
GUCD1 (GeneID 83606) — robust z-score, replicate 1 = -1.32; robust z-score, replicate 2 = -0.396; robust z-score, replicate 3 = -0.602
OSTF1 (GeneID 26578) — robust z-score, replicate 1 = 0.65; robust z-score, replicate 2 = 1.3; robust z-score, replicate 3 = 0.443

Next reagents follow:
For DNAAF1 (GeneID 123872), the values are robust z-score, replicate 1 = 2.15; robust z-score, replicate 2 = 1.33; robust z-score, replicate 3 = 0.309.
ANKRD34B (GeneID 340120) showed robust z-score, replicate 1 = 0.427; robust z-score, replicate 2 = 0.501; robust z-score, replicate 3 = 0.327.
Against BRINP2 (GeneID 57795), the values are robust z-score, replicate 1 = -0.57; robust z-score, replicate 2 = -1.3; robust z-score, replicate 3 = -0.625.
Against NOS1AP (GeneID 9722), the values are robust z-score, replicate 1 = 0.188; robust z-score, replicate 2 = -0.375; robust z-score, replicate 3 = 0.163.
Depletion of ANKS4B (GeneID 257629) came out at: robust z-score, replicate 1 = -0.483; robust z-score, replicate 2 = -0.257; robust z-score, replicate 3 = -0.26.
Against FADS3 (GeneID 3995) the deposit lists robust z-score, replicate 1 = 1.23; robust z-score, replicate 2 = 0.397; robust z-score, replicate 3 = -0.47.
Depletion of XTBD1 (GeneID 91368) resulted in: robust z-score, replicate 1 = -1.3; robust z-score, replicate 2 = -1.16; robust z-score, replicate 3 = -1.
For ARL3 (GeneID 403), the entry reads robust z-score, replicate 1 = 1.82; robust z-score, replicate 2 = 0.366; robust z-score, replicate 3 = 1.06.
SLC61A1 (GeneID 84975) showed robust z-score, replicate 1 = -0.529; robust z-score, replicate 2 = -0.179; robust z-score, replicate 3 = -0.395.
Knock-down of WDR93 (GeneID 56964) came out at: robust z-score, replicate 1 = -1.94; robust z-score, replicate 2 = -0.759; robust z-score, replicate 3 = -0.756.
Depletion of LOC441085 (retired record) (GeneID 441085) gave: robust z-score, replicate 1 = -0.25; robust z-score, replicate 2 = -0.351; robust z-score, replicate 3 = -0.277.
Knock-down of SRSF4 (GeneID 6429) came out at: robust z-score, replicate 1 = -1.34; robust z-score, replicate 2 = -1.48; robust z-score, replicate 3 = -1.24.
